Source: PubChem BioAssay AID652259 (Drosophila RNAi Screening Center, 2013)
In all, the deposit lists about 22,000 reagents; below is a random part of those with a known target gene and a result. In the full data, 233 (1.1%) are marked active. 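Light values are raw, unnormalised plate reads; the ratio scores behind the reporter calls were not deposited.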 Entries without a mark were called inactive. The numbers tell different reagents against one gene apart. A plus sign joins genes that one reagent is predicted to hit. Not given: the amount of reagent, the time to read-out, the dose of the treatment.

- Purpose: 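Knock-downs that push a Wingless-driven reporter up or down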 (primary screen)
- System: Drosophila clone 8 imaginal disc epithelial cells
- Reagent: long dsRNA against Drosophila genes
- Challenge: pathway stimulated by co-transfected Wingless expression plasmid
- Read-out: 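Dual luciferase reads per well after Wingless plasmid stimulation: reporter firefly light and Renilla control light; activity is firefly divided by Renilla, a ratio not deposited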
- Scale: firefly reporter light: higher = more Wg reporter light, before normalisation; Renilla control light: higher = more transfected or surviving cells
- Rule for the call: 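Strong candidates differ from their plate mean by at least two out of four per-plate statistical tests; weak candidates meet just one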
- Meaning of the calls: active = candidate regulator (raises or lowers reporter); inactive = not a candidate

With Lcp65Ag3 + Lcp65Ag2 + Lcp65Ag1 #1, what was measured?
firefly reporter light, replicate 1: 1592; firefly reporter light, replicate 2: 6688; Renilla control light, replicate 1: 1074; Renilla control light, replicate 2: 3121

What did the screen give for Lcp65Ag3 + Lcp65Ag2 + Lcp65Ag1 #2?
firefly reporter light, replicate 1: 1570; firefly reporter light, replicate 2: 6616; Renilla control light, replicate 1: 1290; Renilla control light, replicate 2: 3025

For Eglp3 (Entomoglyceroporin 3), how do the results read?
firefly reporter light, replicate 1: 2482; firefly reporter light, replicate 2: 6930; Renilla control light, replicate 1: 598; Renilla control light, replicate 2: 2092

Which result is listed for CG18131?
firefly reporter light, replicate 1: 4212; firefly reporter light, replicate 2: 12536; Renilla control light, replicate 1: 810; Renilla control light, replicate 2: 1467

With Tsp42Eg (Tetraspanin 42Eg), how do the results read?
firefly reporter light, replicate 1: 13792; Renilla control light, replicate 1: 3985

How did the screen score be (ben) #1?
firefly reporter light, replicate 1: 3878; firefly reporter light, replicate 2: 9433; Renilla control light, replicate 1: 1345; Renilla control light, replicate 2: 4284

With be (ben) #2, how do the results read?
firefly reporter light, replicate 1: 12055; Renilla control light, replicate 1: 9012

With be (ben) #3, how do the results read?
firefly reporter light, replicate 1: 27090; Renilla control light, replicate 1: 10692

What is on record for Idgf5 (Imaginal disc growth factor 5)?
firefly reporter light, replicate 1: 12578; Renilla control light, replicate 1: 3880

What did the screen give for Rpt5 (Regulatory particle triple-A ATPase 5)?
firefly reporter light, replicate 1: 2417; firefly reporter light, replicate 2: 5472; Renilla control light, replicate 1: 710; Renilla control light, replicate 2: 1381

For CG43104 (retired record), how do the results read?
firefly reporter light, replicate 1: 17057; Renilla control light, replicate 1: 12486

With Nep5 (Neprilysin 5), what does the deposit list?
firefly reporter light, replicate 1: 2051; firefly reporter light, replicate 2: 6274; Renilla control light, replicate 1: 941; Renilla control light, replicate 2: 1396

With CG8065, how do the results read?
firefly reporter light, replicate 1: 7874; Renilla control light, replicate 1: 2106

For CG6983, how do the results read?
firefly reporter light, replicate 1: 7995; Renilla control light, replicate 1: 3008

Records listed so far whose target name begins with C or c (4):
CG18131 → firefly reporter light, replicate 1: 4212; firefly reporter light, replicate 2: 12536; Renilla control light, replicate 1: 810; Renilla control light, replicate 2: 1467
CG43104 (retired record) → firefly reporter light, replicate 1: 17057; Renilla control light, replicate 1: 12486
CG8065 → firefly reporter light, replicate 1: 7874; Renilla control light, replicate 1: 2106
CG6983 → firefly reporter light, replicate 1: 7995; Renilla control light, replicate 1: 3008

The listing continues.
How did the screen score Tsp42Ee (Tetraspanin 42Ee)?
firefly reporter light, replicate 1: 2354; firefly reporter light, replicate 2: 6489; Renilla control light, replicate 1: 995; Renilla control light, replicate 2: 3089

How did the screen score CG13561?
firefly reporter light, replicate 1: 4291; firefly reporter light, replicate 2: 10154; Renilla control light, replicate 1: 1017; Renilla control light, replicate 2: 3476

For pHCl-1 (pH-sensitive chloride channel 1) #1, what was measured?
firefly reporter light, replicate 1: 2791; Renilla control light, replicate 1: 920

What is on record for pHCl-1 (pH-sensitive chloride channel 1) #2?
firefly reporter light, replicate 1: 7290; Renilla control light, replicate 1: 2872

What did the screen give for pHCl-1 (pH-sensitive chloride channel 1) #3?
firefly reporter light, replicate 1: 7632; Renilla control light, replicate 1: 3968

For pHCl-1 (pH-sensitive chloride channel 1) #4, what was measured?
firefly reporter light, replicate 1: 8304; Renilla control light, replicate 1: 3717

For Tig (Tiggrin), what was measured?
firefly reporter light, replicate 1: 3729; firefly reporter light, replicate 2: 4941; Renilla control light, replicate 1: 944; Renilla control light, replicate 2: 912

What is on record for CG17191?
firefly reporter light, replicate 1: 7931; Renilla control light, replicate 1: 2619

How did the screen score Gr59e (Gustatory receptor 59e)?
firefly reporter light, replicate 1: 2625; firefly reporter light, replicate 2: 6146; Renilla control light, replicate 1: 598; Renilla control light, replicate 2: 2211

For Lrr47 (Leucine-rich repeat 47), how do the results read?
firefly reporter light, replicate 1: 12475; Renilla control light, replicate 1: 1797

Which result is listed for Nuak (Nuak family kinase) #1?
firefly reporter light, replicate 1: 14753; Renilla control light, replicate 1: 4167

With Nuak (Nuak family kinase) #2, what was measured?
firefly reporter light, replicate 1: 8499; Renilla control light, replicate 1: 2839

For Nuak (Nuak family kinase) #3, what was measured?
firefly reporter light, replicate 1: 15205; Renilla control light, replicate 1: 5376

With Gr93b (Gustatory receptor 93b), what was measured?
firefly reporter light, replicate 1: 7.83e5; firefly reporter light, replicate 2: 4.24e5; Renilla control light, replicate 1: 2.45e5; Renilla control light, replicate 2: 2.19e5

For Hs3st-B (Heparan sulfate 3-O sulfotransferase-B), what was measured?
firefly reporter light, replicate 1: 24106; Renilla control light, replicate 1: 10353

What is on record for CG15650?
firefly reporter light, replicate 1: 1778; firefly reporter light, replicate 2: 5666; Renilla control light, replicate 1: 560; Renilla control light, replicate 2: 2148

How did the screen score dy (dusky)?
firefly reporter light, replicate 1: 30572; Renilla control light, replicate 1: 16924

Which result is listed for rho (rhomboid)?
firefly reporter light, replicate 1: 7906; Renilla control light, replicate 1: 2880
